This is one part of the list.
Experiments:
Test in all cases: log2 fold change, soluble protein after heating vs DMSO (PISA); higher = thermal stabilisation; K562 lysate, 10 uM; active = over 0.2 and 3.5 SD of the protein, either way, in both replicates (recomputed)
[1] = compound: C1=CC=C(C=C1)[C@H](COC2=CC3=C(C=C2)NC(=O)N3)NC(=O)C4=CC=CN(C4=O)CC5=CC(=C(C=C5)F)F
How it was run: (§1)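 To prepare the extract, K562 pellets were dounce-homogenised in PBS pH 7.4 with 1 mM MgCl2, giving crude material at 1 mg/mL protein. This was treated with 10 μM compound for 30 min, then heated in aliquots for 3 min over 48°C-58°C before pooling and addition of NP-40 to 0.5% at 4°C. Centrifugation at 21,000xg for 90 min left soluble protein in the supernatant, which TMTpro 16plex LC-MS/MS quantified with equalised channel sums. Results are log-two fold changes in thermal stability compared with solvent controls, from duplicates.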

Amino acid sequences for entries named in this document (tags omitted). A change or cut given only in a name is not applied to a line headed by its entry.
UniProt Q9BSF8: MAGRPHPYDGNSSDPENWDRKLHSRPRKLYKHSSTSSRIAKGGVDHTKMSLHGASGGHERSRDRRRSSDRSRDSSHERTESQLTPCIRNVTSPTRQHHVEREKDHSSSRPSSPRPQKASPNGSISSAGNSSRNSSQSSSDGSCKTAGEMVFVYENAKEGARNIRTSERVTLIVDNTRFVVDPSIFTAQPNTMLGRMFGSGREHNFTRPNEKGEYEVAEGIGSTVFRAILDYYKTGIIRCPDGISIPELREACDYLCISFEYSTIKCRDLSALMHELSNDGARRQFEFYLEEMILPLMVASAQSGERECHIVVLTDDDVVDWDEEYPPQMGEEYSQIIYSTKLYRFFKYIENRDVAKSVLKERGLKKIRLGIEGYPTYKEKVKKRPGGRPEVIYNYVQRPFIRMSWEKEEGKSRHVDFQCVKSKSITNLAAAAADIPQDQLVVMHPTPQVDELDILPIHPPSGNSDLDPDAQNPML
UniProt O15392, whole entry, looked up: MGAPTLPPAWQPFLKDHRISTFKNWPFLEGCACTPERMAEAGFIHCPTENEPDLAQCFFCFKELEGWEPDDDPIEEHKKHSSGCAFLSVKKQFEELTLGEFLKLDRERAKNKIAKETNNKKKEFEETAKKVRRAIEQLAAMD
UniProt Q06187: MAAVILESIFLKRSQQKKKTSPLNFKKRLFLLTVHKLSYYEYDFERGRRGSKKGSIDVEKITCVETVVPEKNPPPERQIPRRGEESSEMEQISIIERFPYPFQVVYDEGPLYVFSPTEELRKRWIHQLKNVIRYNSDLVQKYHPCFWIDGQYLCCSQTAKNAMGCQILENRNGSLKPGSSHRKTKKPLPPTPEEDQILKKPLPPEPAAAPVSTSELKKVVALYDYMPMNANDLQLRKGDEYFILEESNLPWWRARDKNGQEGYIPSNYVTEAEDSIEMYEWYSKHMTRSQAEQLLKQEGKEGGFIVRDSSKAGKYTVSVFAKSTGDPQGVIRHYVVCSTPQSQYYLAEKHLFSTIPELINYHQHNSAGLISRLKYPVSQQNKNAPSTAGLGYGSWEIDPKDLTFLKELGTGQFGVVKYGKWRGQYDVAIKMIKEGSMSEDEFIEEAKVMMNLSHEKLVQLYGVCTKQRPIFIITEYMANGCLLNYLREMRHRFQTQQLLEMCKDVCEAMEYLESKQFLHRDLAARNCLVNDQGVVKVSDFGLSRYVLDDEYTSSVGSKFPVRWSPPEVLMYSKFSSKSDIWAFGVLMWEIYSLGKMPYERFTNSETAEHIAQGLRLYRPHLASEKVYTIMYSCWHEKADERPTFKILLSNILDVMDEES
UniProt O43505: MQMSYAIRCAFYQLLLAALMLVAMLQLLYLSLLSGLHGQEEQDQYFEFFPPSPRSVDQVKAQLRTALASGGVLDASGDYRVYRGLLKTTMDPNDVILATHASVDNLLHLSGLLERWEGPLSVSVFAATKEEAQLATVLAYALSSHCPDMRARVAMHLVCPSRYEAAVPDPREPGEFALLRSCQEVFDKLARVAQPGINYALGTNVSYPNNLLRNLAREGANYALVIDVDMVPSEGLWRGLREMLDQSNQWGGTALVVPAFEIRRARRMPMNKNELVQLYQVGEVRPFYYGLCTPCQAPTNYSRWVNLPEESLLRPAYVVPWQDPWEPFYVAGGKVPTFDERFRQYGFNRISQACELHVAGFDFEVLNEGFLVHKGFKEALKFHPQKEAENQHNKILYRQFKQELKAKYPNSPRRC
UniProt Q9UHR4: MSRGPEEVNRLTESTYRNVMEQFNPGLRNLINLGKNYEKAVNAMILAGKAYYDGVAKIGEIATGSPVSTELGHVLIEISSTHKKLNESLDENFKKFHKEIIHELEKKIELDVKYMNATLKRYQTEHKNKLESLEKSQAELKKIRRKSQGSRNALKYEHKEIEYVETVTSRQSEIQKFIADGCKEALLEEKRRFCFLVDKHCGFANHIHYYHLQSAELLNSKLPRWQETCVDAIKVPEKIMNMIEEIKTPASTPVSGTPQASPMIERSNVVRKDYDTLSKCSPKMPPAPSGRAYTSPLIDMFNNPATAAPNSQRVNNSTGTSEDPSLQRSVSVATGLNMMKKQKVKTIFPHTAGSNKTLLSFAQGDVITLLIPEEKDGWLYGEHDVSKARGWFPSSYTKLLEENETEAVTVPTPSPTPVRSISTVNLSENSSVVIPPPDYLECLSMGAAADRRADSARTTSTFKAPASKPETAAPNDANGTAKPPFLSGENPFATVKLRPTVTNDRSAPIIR
UniProt Q8WY36: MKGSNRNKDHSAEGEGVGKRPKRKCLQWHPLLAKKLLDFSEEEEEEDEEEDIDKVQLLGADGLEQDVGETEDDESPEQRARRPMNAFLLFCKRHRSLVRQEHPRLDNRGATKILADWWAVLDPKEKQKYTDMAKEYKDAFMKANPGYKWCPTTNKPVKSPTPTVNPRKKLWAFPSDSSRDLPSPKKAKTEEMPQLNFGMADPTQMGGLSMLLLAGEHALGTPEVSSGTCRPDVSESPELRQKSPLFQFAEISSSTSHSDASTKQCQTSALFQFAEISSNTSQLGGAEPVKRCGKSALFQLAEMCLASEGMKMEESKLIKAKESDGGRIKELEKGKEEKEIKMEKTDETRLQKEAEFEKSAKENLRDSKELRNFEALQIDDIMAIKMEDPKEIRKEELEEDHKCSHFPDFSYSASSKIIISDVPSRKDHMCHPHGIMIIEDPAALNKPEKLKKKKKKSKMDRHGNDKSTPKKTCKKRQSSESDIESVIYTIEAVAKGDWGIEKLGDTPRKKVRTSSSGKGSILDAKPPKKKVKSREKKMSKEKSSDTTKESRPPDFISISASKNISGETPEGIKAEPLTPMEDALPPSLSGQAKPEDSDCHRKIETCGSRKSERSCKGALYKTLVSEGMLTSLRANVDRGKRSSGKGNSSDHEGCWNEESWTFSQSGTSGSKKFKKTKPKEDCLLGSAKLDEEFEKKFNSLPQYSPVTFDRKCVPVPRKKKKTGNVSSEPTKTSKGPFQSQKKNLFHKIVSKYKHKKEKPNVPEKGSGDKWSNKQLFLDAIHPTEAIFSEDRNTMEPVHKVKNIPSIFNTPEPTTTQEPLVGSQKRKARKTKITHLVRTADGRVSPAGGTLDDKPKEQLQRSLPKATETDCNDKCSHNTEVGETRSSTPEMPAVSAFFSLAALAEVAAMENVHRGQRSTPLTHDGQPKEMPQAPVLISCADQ
UniProt O75363: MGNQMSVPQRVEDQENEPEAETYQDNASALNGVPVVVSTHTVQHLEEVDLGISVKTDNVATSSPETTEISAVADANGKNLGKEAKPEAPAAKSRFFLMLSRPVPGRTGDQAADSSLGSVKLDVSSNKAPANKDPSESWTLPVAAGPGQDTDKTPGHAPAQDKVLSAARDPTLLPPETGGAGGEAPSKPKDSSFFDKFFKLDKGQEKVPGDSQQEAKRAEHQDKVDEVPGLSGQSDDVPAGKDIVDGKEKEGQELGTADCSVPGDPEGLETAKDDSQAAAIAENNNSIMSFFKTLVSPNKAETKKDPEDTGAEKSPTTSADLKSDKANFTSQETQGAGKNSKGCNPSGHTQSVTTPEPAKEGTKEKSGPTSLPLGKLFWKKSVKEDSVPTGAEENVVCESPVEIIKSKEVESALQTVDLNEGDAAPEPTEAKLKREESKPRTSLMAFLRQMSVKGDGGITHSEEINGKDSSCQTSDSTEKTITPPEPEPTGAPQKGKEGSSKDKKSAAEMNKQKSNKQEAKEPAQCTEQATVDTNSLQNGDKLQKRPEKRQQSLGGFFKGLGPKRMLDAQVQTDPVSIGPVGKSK
UniProt Q5T5X7: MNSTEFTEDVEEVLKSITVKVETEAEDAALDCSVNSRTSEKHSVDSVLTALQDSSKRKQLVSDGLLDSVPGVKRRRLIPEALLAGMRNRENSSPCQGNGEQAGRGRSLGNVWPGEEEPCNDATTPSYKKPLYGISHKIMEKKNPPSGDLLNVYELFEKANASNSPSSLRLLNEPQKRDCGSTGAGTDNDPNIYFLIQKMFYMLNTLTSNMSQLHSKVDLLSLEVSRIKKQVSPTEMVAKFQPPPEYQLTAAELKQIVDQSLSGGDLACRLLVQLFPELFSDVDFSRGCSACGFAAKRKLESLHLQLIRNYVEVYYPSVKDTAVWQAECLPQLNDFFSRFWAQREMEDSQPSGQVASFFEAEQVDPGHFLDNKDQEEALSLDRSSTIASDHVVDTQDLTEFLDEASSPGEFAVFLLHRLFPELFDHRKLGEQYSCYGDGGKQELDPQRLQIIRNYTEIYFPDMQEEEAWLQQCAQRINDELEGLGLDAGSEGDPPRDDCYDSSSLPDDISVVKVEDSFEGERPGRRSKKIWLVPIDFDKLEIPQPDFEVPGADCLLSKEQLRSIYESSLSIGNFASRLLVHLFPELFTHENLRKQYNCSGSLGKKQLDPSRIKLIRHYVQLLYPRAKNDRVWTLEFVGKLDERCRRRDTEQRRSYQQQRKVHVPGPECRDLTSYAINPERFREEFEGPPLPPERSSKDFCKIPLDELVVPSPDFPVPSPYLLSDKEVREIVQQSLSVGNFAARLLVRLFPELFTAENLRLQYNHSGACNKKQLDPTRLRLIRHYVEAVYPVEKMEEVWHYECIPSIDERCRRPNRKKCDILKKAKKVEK
UniProt Q9BX70: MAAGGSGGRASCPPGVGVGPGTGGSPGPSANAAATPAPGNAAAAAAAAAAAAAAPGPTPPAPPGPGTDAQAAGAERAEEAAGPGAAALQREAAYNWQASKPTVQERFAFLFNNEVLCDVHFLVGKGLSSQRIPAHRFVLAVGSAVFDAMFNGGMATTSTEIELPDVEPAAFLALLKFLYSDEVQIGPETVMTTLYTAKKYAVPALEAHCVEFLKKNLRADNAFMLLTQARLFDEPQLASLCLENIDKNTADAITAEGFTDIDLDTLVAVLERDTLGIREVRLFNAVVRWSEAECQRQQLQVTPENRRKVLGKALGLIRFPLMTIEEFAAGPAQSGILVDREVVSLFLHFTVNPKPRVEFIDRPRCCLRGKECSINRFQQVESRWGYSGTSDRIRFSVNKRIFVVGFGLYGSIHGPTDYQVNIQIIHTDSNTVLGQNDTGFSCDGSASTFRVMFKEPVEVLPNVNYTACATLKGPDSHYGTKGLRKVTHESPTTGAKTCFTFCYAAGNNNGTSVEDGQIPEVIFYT
UniProt Q1RMZ1: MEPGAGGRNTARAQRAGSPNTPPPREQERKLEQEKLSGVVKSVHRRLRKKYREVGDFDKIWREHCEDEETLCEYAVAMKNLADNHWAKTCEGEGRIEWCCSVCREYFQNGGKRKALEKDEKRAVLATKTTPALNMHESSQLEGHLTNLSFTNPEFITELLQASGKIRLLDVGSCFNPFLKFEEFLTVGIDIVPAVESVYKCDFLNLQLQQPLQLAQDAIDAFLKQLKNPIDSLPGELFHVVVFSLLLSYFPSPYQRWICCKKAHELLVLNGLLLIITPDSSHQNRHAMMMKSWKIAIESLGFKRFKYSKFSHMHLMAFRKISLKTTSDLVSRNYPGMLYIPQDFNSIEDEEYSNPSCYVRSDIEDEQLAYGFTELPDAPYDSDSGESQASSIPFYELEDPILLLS
UniProt O60513: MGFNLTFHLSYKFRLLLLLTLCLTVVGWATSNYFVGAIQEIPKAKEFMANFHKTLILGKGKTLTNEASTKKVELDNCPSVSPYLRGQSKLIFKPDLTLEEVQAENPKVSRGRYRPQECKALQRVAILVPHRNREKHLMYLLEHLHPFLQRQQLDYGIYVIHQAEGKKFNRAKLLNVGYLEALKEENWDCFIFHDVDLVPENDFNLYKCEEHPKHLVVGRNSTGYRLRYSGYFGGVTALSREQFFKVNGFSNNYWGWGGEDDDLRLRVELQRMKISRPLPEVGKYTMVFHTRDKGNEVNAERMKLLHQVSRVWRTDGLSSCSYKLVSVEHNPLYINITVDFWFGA
UniProt Q9NWD9: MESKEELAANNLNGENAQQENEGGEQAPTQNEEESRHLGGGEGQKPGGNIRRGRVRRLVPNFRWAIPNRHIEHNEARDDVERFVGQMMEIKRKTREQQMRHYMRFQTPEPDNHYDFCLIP
UniProt Q9NPI1: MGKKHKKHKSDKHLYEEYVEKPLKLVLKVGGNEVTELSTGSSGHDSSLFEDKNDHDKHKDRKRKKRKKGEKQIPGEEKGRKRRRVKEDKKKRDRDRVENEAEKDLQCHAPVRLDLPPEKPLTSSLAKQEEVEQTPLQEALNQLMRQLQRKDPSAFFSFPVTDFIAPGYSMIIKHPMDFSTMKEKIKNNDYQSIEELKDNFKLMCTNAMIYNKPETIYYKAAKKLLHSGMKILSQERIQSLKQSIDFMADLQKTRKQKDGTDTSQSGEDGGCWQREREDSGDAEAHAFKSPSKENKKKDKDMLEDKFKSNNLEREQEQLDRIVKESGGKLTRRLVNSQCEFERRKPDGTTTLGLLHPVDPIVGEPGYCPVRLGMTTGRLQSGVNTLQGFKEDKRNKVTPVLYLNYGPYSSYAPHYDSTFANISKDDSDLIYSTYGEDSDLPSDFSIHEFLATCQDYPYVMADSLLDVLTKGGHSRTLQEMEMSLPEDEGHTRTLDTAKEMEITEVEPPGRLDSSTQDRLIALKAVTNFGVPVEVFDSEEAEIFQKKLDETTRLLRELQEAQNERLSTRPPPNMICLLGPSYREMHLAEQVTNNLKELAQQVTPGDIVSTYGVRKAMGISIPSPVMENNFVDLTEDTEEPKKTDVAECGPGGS

[2] = compound: CC1=C(SC2=C1C(=N[C@H](C3=NN=C(N32)C)CC(=O)N)C4=CC=C(C=C4)Cl)C
How it was run: as §1

[3] = compound: CC1=C2C(=CC=C1)N=C(N(C2=O)C3=CC=CC=C3C)CN4C=NC5=C(N=CN=C54)N
How it was run: as §1

[4] = compound: Cc1sc2c(c1C)C(c1ccc(Cl)cc1)=N[C@@H](CC(=O)OC(C)(C)C)c1nnc(C)n1-2
How it was run: as §1

[5] = compound: c1ccc([C@@H]2C[C@H]2NC2CCNCC2)cc1
How it was run: as §1

Measured: log2 fold change

BCAS3 isoform 8 (UniProt Q9H6U6)
inactive: [1] 0.037 | [2] 0.016 | [3] 0.05 | [4] 0.019 | [5] -0.095

BTBD10 isoform 2 (UniProt Q9BSF8)
inactive: [1] -0.002 | [2] -0.022 | [4] -0.017

BIRC5 (UniProt O15392)
inactive: [1] 0 | [2] 0.102 | [3] 0.023 | [4] -0.04 | [5] 0.016

BTK isoform 2 (UniProt Q06187)
inactive: [1] -0.049 | [2] -0.033 | [3] 0.012 | [4] -0.002 | [5] -0.064

BPTF (UniProt Q12830)
inactive: [1] 0.034 | [2] -0.017 | [3] -0.02 | [4] -0.076 | [5] -0.009

BNIP2 (UniProt J3KN59)
inactive: [1] 0.014 | [2] -0.037 | [3] 0.012 | [4] -0.009 | [5] 0.037

B4GAT1 (UniProt O43505)
inactive: [1] -0.108 | [2] -0.17 | [4] -0.044

BTAF1 (UniProt O14981)
inactive: [1] 0.013 | [2] 0 | [3] -0.005 | [4] 0.04 | [5] -0.02

BAG1 (UniProt Q99933)
inactive: [1] 0.016 | [2] -0.011 | [3] -0.009 | [4] 0.028 | [5] -0.067

BTBD6 (UniProt Q96KE9)
inactive: [1] 0.072 | [2] 0.057 | [3] -0.054 | [4] -0.108 | [5] -0.387

BCL7A isoform 2 (UniProt Q4VC05)
inactive: [1] 0.033 | [2] -0.066 | [3] 0.005 | [4] 0.143 | [5] 0.091

BCL2L12 (UniProt Q9HB09)
inactive: [1] 0.162 | [2] 0.119 | [3] 0.035 | [4] -0.011 | [5] -0.044

BAIAP2L1 (UniProt Q9UHR4)
inactive: [1] 0.05 | [2] -0.031 | [3] -0.029 | [4] 0.008 | [5] -0.009

BOD1 (UniProt Q96IK1)
inactive: [4] 0.138 | [5] 0.084

BBX (UniProt Q8WY36)
inactive: [4] 0.045

BAIAP2 isoform 6 (UniProt Q9UQB8)
inactive: [5] -0.001

BNIP3 (UniProt Q12983)
inactive: [1] 0.034 | [2] -0.053 | [4] -0.023 | [5] -0.074

BSCL2 isoform 4 (UniProt Q96G97)
inactive: [5] 0.093

BCAS1 isoform 2 (UniProt O75363)
inactive: [1] 0.109 | [2] -0.038 | [5] -0.072

BEND3 (UniProt Q5T5X7)
inactive: [3] 0.074 | [4] 0.02 | [5] -0.043

BAP18 isoform 3 (UniProt Q8IXM2)
inactive: [3] -0.064 | [5] 0.004

BRAF, A0A2R8Y8E0
inactive: [3] -0.13

BICRA (UniProt Q9NZM4)
inactive: [1] -0.077 | [2] 0.208 | [4] -0.122 | [5] -0.142

BNIP2 (UniProt H7C096)
inactive: [1] 0.013 | [2] 0.013 | [5] -0.05

BCAP31, A0A2R8Y5M6
inactive: [3] -0.346 | [5] -0.007

BTBD2 (UniProt Q9BX70)
inactive: [5] -0.068

BIN1 (UniProt O00499)
inactive: [3] -0.066 | [5] -0.192

2 records drawn at random from the list so far, as already listed:
BNIP2 (UniProt H7C096)
inactive: [1] 0.013 | [2] 0.013 | [5] -0.05

BICRA (UniProt Q9NZM4)
inactive: [1] -0.077 | [2] 0.208 | [4] -0.122 | [5] -0.142

Remaining list, next part.

BPIFA1 (UniProt Q9NP55)
inactive: [3] 0.684 | [4] -0.078 | [5] 0.055

BIRC6, A0A3B3IUB9
inactive: [3] 0 | [4] 0.225 | [5] -0.078

BMT2 (UniProt Q1RMZ1)
inactive: [5] 0.123

B4GALT4 (UniProt O60513)
inactive: [4] -0.066 | [5] 0.016

BBS7 (UniProt Q8IWZ6)
inactive: [3] 0.035 | [4] -0.358 | [5] 0.181

BEX4 (UniProt Q9NWD9)
inactive: [4] -0.085

BRD7 isoform 2 (UniProt Q9NPI1)
inactive: [1] -0.012 | [2] 0.025 | [4] -0.015 | [5] 0.125

From the supplement of paper PMC10849652
